The assay relates to DSS-induced colitis in mice. Briefly: DSS-induced acute colitis in WT mice, P2Y14R antagonist treatment (body weight, DAI, colon length, H&E, tight junction staining, TEM). More on the design: scale not given here. Conditions: DSS-treated mice.

A number of entries come with more than one value. The other results are left out here. The source may hold further records. Values given together differ, and nothing given here explains why; they may come from other doses, times, organisms or constructs than stated.

For `O=C(O)c1cc(-c2ccc(C3CCNCC3)cc2)c2ccc(-c3ccc(C(F)(F)F)cc3)cc2c1` [PPTN], the DAI is 3, 1, 2 (Day 4); 4 and 2 (Day 6); 3, 2, 5 (Day 7).

Source of the values: publication PMC10920779, “Targeting P2Y14R protects against necroptosis of intestinal epithelial cells through PKA/CREB/RIPK1 axis in ulcerative colitis” (Nature Communications, 2024).
